Source: PMC12208539

T1: Flag-PPIL2 (UniProt Q13356)
T1 sequence: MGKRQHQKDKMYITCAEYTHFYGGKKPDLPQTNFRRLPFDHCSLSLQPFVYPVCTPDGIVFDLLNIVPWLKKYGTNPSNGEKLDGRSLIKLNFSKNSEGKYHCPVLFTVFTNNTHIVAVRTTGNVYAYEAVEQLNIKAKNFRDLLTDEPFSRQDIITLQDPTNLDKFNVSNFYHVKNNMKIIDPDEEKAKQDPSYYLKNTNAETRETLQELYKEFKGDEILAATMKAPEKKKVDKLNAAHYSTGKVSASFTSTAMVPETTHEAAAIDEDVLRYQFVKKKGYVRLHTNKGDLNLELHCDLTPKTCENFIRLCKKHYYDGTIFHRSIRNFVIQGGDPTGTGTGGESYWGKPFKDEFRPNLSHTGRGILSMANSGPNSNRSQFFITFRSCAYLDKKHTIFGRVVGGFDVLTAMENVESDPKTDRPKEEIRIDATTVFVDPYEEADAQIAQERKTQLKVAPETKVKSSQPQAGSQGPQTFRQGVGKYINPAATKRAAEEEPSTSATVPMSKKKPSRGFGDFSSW

T2: BirA-fusion PLEK2 (UniProt Q9NYT0)
T2 sequence: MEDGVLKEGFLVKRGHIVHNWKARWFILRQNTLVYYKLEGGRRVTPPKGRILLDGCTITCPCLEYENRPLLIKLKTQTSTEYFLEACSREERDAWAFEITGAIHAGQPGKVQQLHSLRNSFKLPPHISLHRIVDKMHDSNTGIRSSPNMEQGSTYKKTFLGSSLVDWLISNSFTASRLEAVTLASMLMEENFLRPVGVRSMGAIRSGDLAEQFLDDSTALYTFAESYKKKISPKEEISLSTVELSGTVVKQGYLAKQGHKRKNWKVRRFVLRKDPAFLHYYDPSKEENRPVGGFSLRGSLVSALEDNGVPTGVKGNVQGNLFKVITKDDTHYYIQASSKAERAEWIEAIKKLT


Tests used:
Flag-PPIL2 = target: T1, Flag-PPIL2; test: affinity purification with mass spectrometry; IP of Flag-tagged PPIL2, Coomassie stain, mass spectrometry
BirA-fusion PLEK2 = target: T2, BirA-fusion PLEK2; test: proximity labelling; biotin conjugation by BirA-fusion PLEK2 in HEK293T cells, streptavidin pulldown of the lysate, Western blotting

Row | binding (Flag-PPIL2) | binding (BirA-fusion PLEK2) | Binder
1 | binds |  | CRNKL1 (protein, UniProt Q9BZJ0 1-848) MTATVENLTFQKDTLGNAVDKNTSRLELRSYSLAGRHGSTEPLVLAWSSQFRRLTWGCALDALHRSPCVAASQHGVTHLIRSSRTPHSTRCRKEDAQPGHHGNGAASVTAQARGQRSVLQVPLPVPRSCLFSESFVVSVSSQSRFLASVPGTGVQRSTAADMAASTAAGKQRIPKVAKVKNKAPAEVQITAEQLLREAKERELELLPPPPQQKITDEEELNDYKLRKRKTFEDNIRKNRTVISNWIKYAQWEESLKEIQRARSIYERALDVDYRNITLWLKYAEMEMKNRQVNHARNIWDRAITTLPRVNQFWYKYTYMEEMLGNVAGARQVFERWMEWQPEEQAWHSYINFELRYKEVDRARTIYERFVLVHPDVKNWIKYARFEEKHAYFAHARKVYERAVEFFGDEHMDEHLYVAFAKFEENQKEFERVRVIYKYALDRISKQDAQELFKNYTIFEKKFGDRRGIEDIIVSKRRFQYEEEVKANPHNYDAWFDYLRLVESDAEAEAVREVYERAIANVPPIQEKRHWKRYIYLWINYALYEELEAKDPERTRQVYQASLELIPHKKFTFAKMWILYAQFEIRQKNLSLARRALGTSIGKCPKNKLFKVYIELELQLREFDRCRKLYEKFLEFGPENCTSWIKFAELETILGDIDRARAIYELAISQPRLDMPEVLWKSYIDFEIEQEETERTRNLYRRLLQRTQHVKVWISFAQFELSSGKEGSLTKCRQIYEEANKTMRNCEEKEERLMLLESWRSFEEEFGTASDKERVDKLMPEKVKKRRKVQTDDGSDAGWEEYFDYIFPEDAANQPNLKLLAMAKLWKKQQQEKEDAEHHPDEDVDESES
2 |  | binds | PPIL2 (peptidylprolyl isomerase-like 2) in HEK293T lysate (protein, UniProt Q13356 1-520) MGKRQHQKDKMYITCAEYTHFYGGKKPDLPQTNFRRLPFDHCSLSLQPFVYPVCTPDGIVFDLLNIVPWLKKYGTNPSNGEKLDGRSLIKLNFSKNSEGKYHCPVLFTVFTNNTHIVAVRTTGNVYAYEAVEQLNIKAKNFRDLLTDEPFSRQDIITLQDPTNLDKFNVSNFYHVKNNMKIIDPDEEKAKQDPSYYLKNTNAETRETLQELYKEFKGDEILAATMKAPEKKKVDKLNAAHYSTGKVSASFTSTAMVPETTHEAAAIDEDVLRYQFVKKKGYVRLHTNKGDLNLELHCDLTPKTCENFIRLCKKHYYDGTIFHRSIRNFVIQGGDPTGTGTGGESYWGKPFKDEFRPNLSHTGRGILSMANSGPNSNRSQFFITFRSCAYLDKKHTIFGRVVGGFDVLTAMENVESDPKTDRPKEEIRIDATTVFVDPYEEADAQIAQERKTQLKVAPETKVKSSQPQAGSQGPQTFRQGVGKYINPAATKRAAEEEPSTSATVPMSKKKPSRGFGDFSSW

Results are given in words; binding and its absence hold for the method and conditions named. Binding seen in cells or lysates may run through a third protein. These calls come from enrichment with a bait or labelling near it, and not all partners need be listed. Sequences can lack the tags named with a protein.
